According to PMC7819943, “Rice protein-binding microarrays: a tool to detect cis-acting elements near promoter regions in rice”:
The other results are listed elsewhere or left out.

Amino acid sequences for entries named in this document (tags omitted).
UniProt Q0JBA9, entry or part of it: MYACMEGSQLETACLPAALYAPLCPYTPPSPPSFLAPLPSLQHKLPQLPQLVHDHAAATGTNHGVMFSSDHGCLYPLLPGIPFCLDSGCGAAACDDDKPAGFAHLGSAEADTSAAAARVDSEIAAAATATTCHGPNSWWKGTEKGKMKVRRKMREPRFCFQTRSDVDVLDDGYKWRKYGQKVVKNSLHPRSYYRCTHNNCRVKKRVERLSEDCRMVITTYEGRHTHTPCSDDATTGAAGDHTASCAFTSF

Molecular target: OsWRKY34 (Oryza sativa, UniProt Q0JBA9 1-250)
Experiment: protein-binding microarray (RPBM); PBS, 2% BSA, 51.3 ng/ul salmon testes DNA, 50 uM zinc acetate, 200 nM TF, 25 C, 1 h; high values mean tight binding
Conditions: protein: recombinant; tags: N-terminal polyhistidine and DsRed monomer fusion (pET32a); label: CyDye5-dUTP incorporated in the synthesized complementary strand; 3' TTTTT single-stranded linker to array surface; dsDNA, one strand shown
How it was run: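 Transcription factors, each fused N-terminally to a polyhistidine tag and DsRed, were expressed in E. coli BL21-CodonPlus and purified on Ni–NTA. A custom Agilent array was made double-stranded by primer extension with Cy5-dUTP and blocked with 2% BSA. It was incubated with 200 nM protein in PBS, 2% BSA, salmon testes DNA and 50 µM zinc acetate at 25 °C for 1 h, then washed. The binding signal is per-feature fluorescence intensity (arbitrary units) read on an Axon 4000B scanner.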

Sequence	binding signal
TACTAAAAAAGTCAACGGTGTCATTTGAAACGGAGGGAGTCGGAGTCACCTAGTGCAG	11600 fluorescence intensity (a.u.)
TTCTGCCTACTCGATGTCGTATTACGTAGATCCTTGTACCCGGAGTCACCTAGTGCAG	9570 fluorescence intensity (a.u.)
GATTGTTCTTCTCGCTTCTGAATTGTTGTGACCTGTAACTCGGAGTCACCTAGTGCAG	8250 fluorescence intensity (a.u.)
TCCGTTTTGCCGTTGGGCTAGCTTAGCTTGTTTTTTTTTTCGGAGTCACCTAGTGCAG	12000 fluorescence intensity (a.u.)
GAGCTTATAGGGTGGGTTGTGTCCATGGAGTAACTATTATCGGAGTCACCTAGTGCAG	18600 fluorescence intensity (a.u.)
GCCCACAAACACAAGCGCTGTTTTCCTCTCCTACCCTTTTCGGAGTCACCTAGTGCAG	9490 fluorescence intensity (a.u.)
CCTTTTGCTTGTTCAGTTTTTTGTGCCTCATCCTTCTCTTCGGAGTCACCTAGTGCAG	10000 fluorescence intensity (a.u.)
GGTGCGTGGGTGGTGGTCTTTTTCTTTTTCCTAGTTACGACGGAGTCACCTAGTGCAG	29400 fluorescence intensity (a.u.)
GCTGCTGAAATGGCATTTTCTTTGGTTATTCTACTTCCAACGGAGTCACCTAGTGCAG	9030 fluorescence intensity (a.u.)
TCCACTTCATCACCGGCCACTCTGCCTAGAGCATTATCATCGGAGTCACCTAGTGCAG	11000 fluorescence intensity (a.u.)
TATCTCATTCATCTGATTCCTGCGCTTTTCCTATAGTCCACGGAGTCACCTAGTGCAG	8060 fluorescence intensity (a.u.)
CACTTTCCCAGCCAAAAACTCTCGTACTCCAGCTCGTATACGGAGTCACCTAGTGCAG	9380 fluorescence intensity (a.u.)
GCGGTATTGAAAGATCGAATGTCTGGTTTTCGGGTTGGGGCGGAGTCACCTAGTGCAG	10100 fluorescence intensity (a.u.)
AGATTGTGAACTAACATAAAATTGCTTTTTGGTCAAGCCTCGGAGTCACCTAGTGCAG	8170 fluorescence intensity (a.u.)
TGTGTTTTTCAAATTTCTACTCTTGGGTGGGGAAAAGGAGCGGAGTCACCTAGTGCAG	9200 fluorescence intensity (a.u.)
CAACTCATCCATCCCCACCTTGTCCACGTCGTCGCCTATACGGAGTCACCTAGTGCAG	8400 fluorescence intensity (a.u.)
CTCTCCATCCACTCTGCTGCAGCAGCCAAGAAGAAATTTCCGGAGTCACCTAGTGCAG	8200 fluorescence intensity (a.u.)
CCGCCAATCACCCCAACCATCCATTTATGTCGTCGCGCCCCGGAGTCACCTAGTGCAG	11800 fluorescence intensity (a.u.)
CTCGCTCTCTCTCCCGCAGCGTCAGCCGCTTTGCCGCACTCGGAGTCACCTAGTGCAG	8730 fluorescence intensity (a.u.)
ATACTATCACTTCAACCATTGGTAGTGCAATAATTTCTTTCGGAGTCACCTAGTGCAG	8760 fluorescence intensity (a.u.)
GAGAGAATACATTAAGCTTATACATCCCACTATTTGTCGACGGAGTCACCTAGTGCAG	8170 fluorescence intensity (a.u.)
TCCTGACCACTGCGAACTGGCGCGCTGATTTGACTTCCGGCGGAGTCACCTAGTGCAG	8650 fluorescence intensity (a.u.)
ATTAGGATGATCCTACCTGTCCGTACACCATGTTTTGTCCCGGAGTCACCTAGTGCAG	10500 fluorescence intensity (a.u.)

2 entries from above, with bars between the fields:
Sequence | binding signal
ATACTATCACTTCAACCATTGGTAGTGCAATAATTTCTTTCGGAGTCACCTAGTGCAG | 8760 fluorescence intensity (a.u.)
GAGAGAATACATTAAGCTTATACATCCCACTATTTGTCGACGGAGTCACCTAGTGCAG | 8170 fluorescence intensity (a.u.)
